Laboratory results: PubChem BioAssay AID1918948 (Molecular Pharmacology Branch, DTP, NCI, 2023)
Several values for one entry are separate records, joined by “and”; a condition that tells them apart may be missing. Equal values may be shown once. This continues a long series; more values of the same kind are listed elsewhere.

Tested on: K-562 leukemia growth, % test/control
Assay: Anticancer human tumor K-562 cell line growth inhibition;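 further: spheroids exposed to compounds for 7 days; 100% = DMSO vehicle wells and lower values mean fewer viable cells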
Details: active compounds read low, spheroids with HUVEC and MSC
Source text: Multicellular complex tumor spheroid response to LSD1 Inhibitor Iadademstat in combination with a variety of drugs and investigational agents in selected tumor cell lines
The current study was undertaken to assess response to LSD1 inhibitors in combination with standard-of-care drugs and investigational agents in solid tumor complex spheroid models as well as in the K-562 leukemia. Complex spheroids include a stromal component modeled by human endothelial cells (HUVEC) and fibroblasts modeled by human mesenchymal stem cells (MSCs). The concentration ranges selected for each drug and investigational agent were based upon clinically achievable concentrations if the clinical Cmax of the agent was known.
Compounds. The drugs and investigational agents used in this study are listed on Table 1. All of the agents used, including staurosporine (NSC755774) and gemcitabine (NSC613327), were obtained from the Developmental Therapeutics Program, NCI. FDA-approved anticancer drugs are available from the NCI at http://dtp.nci.nih.gov/branches/dscb/oncology_drugset_explanation.html. Drugs and investigational agents were >95% pure by proton nuclear magnetic resonance (NMR) and liquid chromatography/mass spectrometry (LC/MS). Stock solutions were prepared at 400x in DMSO, stored at -70 degrees C, and diluted in fresh medium prior to their use. The final concentration of DMSO in cell culture wells never exceeded 0.25% (v/v). The FDA-approved anticancer drug set is available from the Developmental Therapeutics Program at https://dtp.cancer.gov/organization/dscb/obtaining/available_plates.htm. All drugs and investigational agents were tested over a range starting from a high concentration at or near the clinical Cmax and decreasing in half-log increments. If the clinical Cmax for an agent had not been determined, the highest concentration tested was 10 microM.
Cell Lines. […]

Row | SMILES | viability, T/C (compound 0.316 µM) | viability, T/C (compound 10 µM) | viability, T/C (compound 0.1 µM)
1 | NC1CCC(NC2CC2c2ccccc2)CC1 (stereo not drawn) | 102% [middle of 19 runs] | 96.7% and 101% | 
2 | NC1CC1c1ccc(-c2cccc(O)c2)cc1 (stereo not drawn) |  |  | 108% [middle of 22 runs]
